Out of some 400,000 compounds screened, about 5,500 (1.4%) were called active. The shares of active, inactive and inconclusive entries below differ from those in the screen. Calls come from the whole dose curve; as a rule, active = well fitted cell-killing curve with a large enough effect; inconclusive = small, poorly fitted or top-dose-only effect, or effect the other way; inactive = flat fitted curve, though single readings scatter. Where the call is inconclusive, the potency comes from a doubtful curve fit.
Assay: qHTS assay for MDR1-selective chemotherapeutics: Primary screen using the parental adenocarcinoma cell KB-3-1; note: nearly all actives have a fitted effect of over 60% in size
Conditions: KB-3-1 viability, CellTiter-Glo ATP luminescence, 72 h; activity change, negative = cytotoxic: at 46.1 µM (top of the series)
Outline: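 Viability of parental KB-3-1 cells, measured by CellTiter-Glo luminescence, followed a 72 h incubation at 37 °C with pinned compounds in phenol-red-free DMEM containing 10% FBS.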
% is set by controls: 0 for no effect and ±100 for the full control effect; potency is the fitted concentration of half-maximal effect.

| SMILES | Potency | activity change, negative = cytotoxic |
| --- | --- | --- |
| CC(C)(C)Cn1c(=O)[nH]c(=O)c2cc([N+](=O)[O-])cnc21 | inconclusive: 29.1 µM [rising, single point] | – |
| CC1(C)N=C(N)N=C(N)N1c1ccc(CCCCc2ccccc2)cc1 | inconclusive: 2.59 µM [cytotoxic, partial curve, poor fit] | – |
| CCCCn1c(SCC(=O)Nc2nnc(C)s2)nnc1-c1ccoc1C | inconclusive: 1.03 µM [rising, full curve] | – |
| Cc1ccc2[nH]c3c(=O)n(CC(=O)N4CCCC(C)C4)ncc3c2c1 (stereo not drawn) | – | inactive: -19.5% |
| CCCCNc1nc2ccccc2n1CC(=O)N1CCc2ccccc2C1 | – | inactive: -11.1% |
| CCC(C)c1ccc(S(=O)(=O)N2CCN(C(=O)c3ccc(Cl)c(S(=O)(=O)N4CCOCC4)c3)CC2)cc1 (stereo not drawn) | inconclusive: 13 µM [cytotoxic, partial curve, poor fit] | – |
| Cc1ccc(-n2[nH]c(C)c(C=Nc3ccc(C)cn3)c2=O)cc1 | inconclusive: 8.2 µM [cytotoxic, partial curve] | – |
| Cc1cc(C)c2ccc(C(=O)O)nc2c1O | inconclusive: 29.1 µM [cytotoxic, single point] | – |
| Cc1ccc(C(N)=O)cc1S(=O)(=O)Nc1cccc(C)c1C | inconclusive: 13 µM [cytotoxic, single point] | – |
| COc1cc(C(C)=O)ccc1OCC(=O)OCCCOC(=O)COc1ccc(C(C)=O)cc1OC | – | inactive: 29.8% |
| O=C(Nc1ccccc1-c1ccccc1)NC1CC2CCCC(C1)N2Cc1ccc(F)cc1 (stereo not drawn) | – | inactive: -13% |
| CN1CCN(S(=O)(=O)c2ccc(Cl)s2)CC1 | – | inactive: 9.55% |
| Cc1noc(C)c1COc1ccc(C(=O)OCc2nnc(-c3ccc(Cl)cc3)o2)cc1 | – | inactive: -3.06% |
| Cc1nc(NCCc2ccccc2)c2oc3ccccc3c2n1 | inconclusive: 10.3 µM [cytotoxic, partial curve, poor fit] | – |
| FC(F)Oc1ccc(NC(=S)NCc2ccccc2)cc1Cl | inconclusive: 23.1 µM [cytotoxic, partial curve, poor fit] | – |
| N/C(=N\OC(=O)c1ccc2ccccc2c1)c1cccc([N+](=O)[O-])c1 | inconclusive: 29.1 µM [rising, single point] | – |
| CCOc1cccc(/C=N/NC(=O)c2cc(-c3cccn3C)n[nH]2)c1O | inconclusive: 29.1 µM [cytotoxic, single point] | – |
| CCOC(=O)/C=c1\s/c(=C\c2ccc(-c3ccccc3)cc2)c(=O)n1CC(=O)NCc1ccc2c(c1)OCO2 | inconclusive: 16.4 µM [cytotoxic, single point] | – |
| COc1ccc(C(CNC(=O)c2cccc(S(=O)(=O)Nc3ccc(F)cc3)c2)N2CCCC2)cc1 (stereo not drawn) | inconclusive: 5.17 µM [cytotoxic, partial curve, poor fit] | – |
| C/C(Cn1nnc([N+](=O)[O-])n1)=N\NC(=O)c1ccc(C)cc1 | inconclusive: 23.1 µM [rising, single point] | – |
| CCOC(=O)c1c(Nc2cccc(C)c2)nnc(-c2ccccc2)c1-c1ccccc1 | active: 16.4 µM | – |
| Cc1cccc(C)c1-n1nnnc1C(c1ccnc2ccccc12)N1CCCN(C(=O)OC(C)(C)C)CC1 (stereo not drawn) | inconclusive: 18.4 µM [cytotoxic, single point] | – |
| Cc1c(C(=O)N2CCOCC2)sc(NC(=O)c2ccc([N+](=O)[O-])cc2)c1C#N | – | inactive: -21.2% |

| SMILES | Potency | activity change, negative = cytotoxic |
| --- | --- | --- |
| Cc1cccc(/C=C/C(=O)c2ccc([N+](=O)[O-])o2)c1 | inconclusive: 2.59 µM [cytotoxic, partial curve, poor fit] | – |
| O=C(OCCOc1ccccc1Cl)c1cc(S(=O)(=O)N2CCCCC2)ccc1N1CCOCC1 | inconclusive: 18.4 µM [cytotoxic, single point] | – |
| COc1cc(-c2ccno2)ccc1S(=O)(=O)N1CCN(c2ccc(F)cc2)CC1 | inconclusive: 23.1 µM [cytotoxic, partial curve, poor fit] | – |
| CCOC(=O)c1cccc(NC(=O)c2sc3nc[nH]c(=O)c3c2C)c1 | – | inactive: 2.32% |
| COc1cc(C(=O)Nc2ccc(S(=O)(=O)N3CCc4ccccc43)cc2)cc(OC)c1OC | inconclusive: 29.1 µM [cytotoxic, partial curve, poor fit] | – |
| CCc1cc2c(=O)n(Cc3ccco3)c(SCC(=O)N3CCCc4ccccc43)nc2s1 | – | inactive: 2.4% |
| Cc1ccc(CC(=O)Nc2ccc(C(=O)N3CCOCC3)cc2)cc1 | – | inactive: 2.91% |
| O=C(CCN1C(=O)c2ccccc2S1(=O)=O)Nc1ccc(F)c(F)c1F | – | inactive: 10.4% |
| Cc1oc(-c2ccc(Cl)cc2)nc1CN1CCCC(C(=O)NCc2ccco2)C1 (stereo not drawn) | inconclusive: 29.1 µM [cytotoxic, single point] | – |
| CCOC(=O)N1CCC(NC(=O)c2ccc3c(c2)N(Cc2ccc(Cl)cc2)C(=O)c2ccccc2S3=O)CC1 (stereo not drawn) | inconclusive: 16.4 µM [cytotoxic, single point] | – |
| COC(=O)c1cc(OC)c(OC)cc1NC(=O)c1ccc2c(c1)CCN2S(=O)(=O)c1ccccc1 | – | inactive: 12.1% |
| COc1ccc(OCC(CO)N2CCN(c3ccccc3)CC2)cc1 (stereo not drawn) | – | inactive: 2.43% |
| COc1ccc(NC(=O)COC(=O)c2cc([N+](=O)[O-])ccc2N2CCOCC2)cc1 | inconclusive: 4.61 µM [rising, full curve] | – |
| CCOC(=O)CSc1nnc(CNC(=O)c2ccco2)n1C | inconclusive: 29.1 µM [cytotoxic, single point] | – |
| Cc1ccc(C(=O)NCC(=O)OCC(=O)Nc2ccc3[nH]c(=O)[nH]c3c2)cc1 | inconclusive: 29.1 µM [rising, single point] | – |
| COc1ccccc1NS(=O)(=O)c1cc(NC(=O)c2ccc(Cl)nc2)ccc1Cl | inconclusive: 18.4 µM [cytotoxic, single point] | – |
| COc1cccc(CNC(=O)CSc2n[nH]c(-c3ccccc3Cl)n2)c1 | – | inactive: -1.05% |
| O=C(c1ccccc1)N1CCN(C2c3cccc4cccc(c34)C2NS(=O)(=O)c2ccccc2)CC1 (stereo not drawn) | inconclusive: 29.1 µM [cytotoxic, single point] | – |
| CC1CC(C)(C)NC(=S)N1CCCC(=O)Nc1ccccc1F (stereo not drawn) | – | inactive: -20.4% |
| CSc1cccc(N2CC(C(=O)N(CC(C)C)c3c(N)n(Cc4ccccc4)c(=O)[nH]c3=O)CC2=O)c1 (stereo not drawn) | – | inactive: -4.09% |
| Cc1ccc(S(=O)(=O)NCCC(=O)OCc2ccc([N+](=O)[O-])cc2)cc1C | inconclusive: 0.0461 µM [cytotoxic, full curve] | – |
| CCn1c(SCC(=O)Nc2nc(-c3ccc(C)cc3)cs2)nnc1-c1ccccc1O | inconclusive: 14.6 µM [cytotoxic, partial curve, poor fit] | – |
| COC(=O)C[C@H]1C[C@@H]2c3cc(NS(=O)(=O)c4cccc(OC)c4)ccc3O[C@@H]2[C@@H](CO)O1 | – | inactive: -8.67% |

One compound at a time (already shown). Values in the order: Potency	activity change, negative = cytotoxic
`Cc1ccc(CC(=O)Nc2ccc(C(=O)N3CCOCC3)cc2)cc1` is listed as –	inactive: 2.91%
`CCOC(=O)/C=c1\s/c(=C\c2ccc(-c3ccccc3)cc2)c(=O)n1CC(=O)NCc1ccc2c(c1)OCO2` is listed as inconclusive: 16.4 µM [cytotoxic, single point]	–

Further entries:

| SMILES | Potency | activity change, negative = cytotoxic |
| --- | --- | --- |
| CN1CCN(C2=Cc3ccccc3Sc3cc(F)c(F)cc32)CC1 | inconclusive: 35.5 µM [cytotoxic, single point] | – |
| COc1ccc(CNC(=O)N2CCN(S(=O)(=O)c3ccccc3)CC2)cc1 | – | inconclusive: -22.9% |
| O=C(N/N=C/c1cc(Br)cc(Br)c1O)c1cccc(N2CCCC2=O)c1 | inconclusive: 29.1 µM [cytotoxic, single point] | – |
| O=C(CCc1ccccc1)NNC(=O)c1ccccn1 | inconclusive: 29.1 µM [cytotoxic, single point] | – |
| O=C(/C=C/c1ccc2c(c1)OCO2)NCCSCc1ccc(Cl)cc1Cl | inconclusive: 5.8 µM [cytotoxic, partial curve, poor fit] | – |
| O=C(c1ccc(F)cc1)n1nc(-c2ccc(Cl)cc2)nc1NCc1ccco1 | inconclusive: 29.1 µM [cytotoxic, single point] | – |
| CC/C(=C\c1ccc(N(C)C)cc1)c1ccncc1 | active: 20.6 µM | – |
| CC(/C=N/NC(=O)c1cc(C(C)(C)C)[nH]n1)=C\c1ccccc1 | inconclusive: 29.1 µM [cytotoxic, single point] | – |
| C=COC(=O)NC1CCc2cc(OC)c(OC)c(OC)c2-c2ccc(SC)c(=O)cc21 (stereo not drawn) | active: 0.0065 µM | – |
| Oc1cccc2c(CC(O)c3c[nH]c4ccccc34)ccnc12 (stereo not drawn) | active: 0.731 µM | – |
| CCOc1ccc(NC(=O)Cn2c(=O)n(Cc3ccc(C(=O)NCc4ccc5c(c4)OCO5)cc3)c(=O)c3ccccc32)cc1 | inconclusive: 23.1 µM [rising, single point] | – |
| CCCCOc1ccc(N(CC(=O)NCc2ccccc2)C(=O)c2csnn2)cc1 | – | inactive: -8.05% |
| COc1ccc(CCNc2nc(C)nc3c2nnn3Cc2ccccc2)cc1 | – | inactive: 13.6% |
| CC(=O)N(C1CC(C)C(C#N)(C#N)C1(C#N)C#N)N(C)C (stereo not drawn) | – | inactive: 11.6% |
| O=C(O)CSc1c2c(nc3cc(C(=O)NCCN4CCOCC4)ccc13)CCC2 | inconclusive: 18.4 µM [cytotoxic, partial curve] | – |
| O=C(Nc1ncc2c(n1)CC(c1ccccc1)CC2=O)c1ccco1 (stereo not drawn) | – | inactive: -4.86% |
| CCCCn1nnnc1SCC(=O)Nc1ccc2c(c1)OCCO2 | inconclusive: 16.4 µM [rising, partial curve, poor fit] | – |
| CCCCOc1ccc(C(=O)Nc2ccc3c(c2)CCCN3S(=O)(=O)c2ccc(C)cc2)cc1 | inconclusive: 16.4 µM [cytotoxic, single point] | – |
| COc1ccc(S(=O)(=O)NCc2ccccn2)cc1Br | – | inactive: 0.756% |
| Cc1ccc2c(CN(Cc3ccccc3)Cc3ccccc3)cc(=O)oc2c1 | inconclusive: 25.9 µM [cytotoxic, single point] | – |
| CC(=NNc1nc2ccccc2s1)c1ccncn1 | active: 7.31 µM | – |
| CCC(C(=O)NCc1ccc2c(c1)CCN2C(=O)c1ccc(F)cc1)c1ccccc1 (stereo not drawn) | inconclusive: 16.4 µM [rising, partial curve] | – |

In another format: entries from further up.
SMILES,Potency,"activity change, negative = cytotoxic"
CCCCNc1nc2ccccc2n1CC(=O)N1CCc2ccccc2C1,–,inactive: -11.1%
Cc1nc(NCCc2ccccc2)c2oc3ccccc3c2n1,"inconclusive: 10.3 µM [cytotoxic, partial curve, poor fit]",–
COc1ccc(CNC(=O)N2CCN(S(=O)(=O)c3ccccc3)CC2)cc1,–,inconclusive: -22.9%
